Binding screen against folded nucleic acids

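Compounds were printed on reactive glass slides in duplicate spots, a dye-labelled oligonucleotide was laid over them, and the fluorescence left after washing was read. The data file lists only calls. An earlier report of the laboratory on the PreQ1, TPP and SAM-II riboswitches (doi:10.1038/s41467-019-09493-3) used 1 µM RNA for 2 h and required a mean Z-score above 3 (spot signal-to-noise against the whole library), a score well above that on a control array, and duplicate spots agreeing (coefficient of variation under 100); it then also set aside compounds that hit other targets, which this list keeps. The cut-offs behind this list may differ. The calls come from the array alone, and fixing a compound to the slide can hide its binding.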 Key: Y = hit, N = tested without a hit. This is an unselected part of the compounds tested. A dash means that no call is listed here.

Oligonucleotides screened, 5′ to 3′:
PreQ1: PreQ1 riboswitch RNA pseudoknot, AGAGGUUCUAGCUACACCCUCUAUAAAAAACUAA. From B. subtilis. About 170 hits among about 24,000 compounds.
SAM-II: SAM-II riboswitch RNA pseudoknot, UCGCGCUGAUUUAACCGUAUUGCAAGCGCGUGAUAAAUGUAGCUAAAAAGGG. About 200 hits among about 21,000 compounds.
TPP: TPP riboswitch RNA three-way junction, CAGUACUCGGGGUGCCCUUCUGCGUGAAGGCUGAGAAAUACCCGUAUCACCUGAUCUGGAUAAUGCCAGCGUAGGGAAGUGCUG. About 160 hits among about 24,000 compounds.

SMILES,PreQ1,SAM-II,TPP
CCCNC(=O)[C@H]1O[C@H]1C(=O)N[C@H](C(=O)N1CCC[C@@H]1C(=O)OC)C(C)CC (stereo partly specified),N,N,N
CCC(C)NCc1nc(-c2ccc(OC)c(OC)c2)no1 (stereo unspecified),N,N,N
COc1cc(Nc2c(-c3ccc(C(C)C)cc3)c(=O)c2=O)cc(OC)c1,N,-,N
COCc1nn2c(N)c(C#N)nnc2c1-c1ccccc1,N,-,N
CC(C)c1nnc(N)s1,N,N,N
O=C(CCC(=O)NC1CCCCCC1)NCC(O)Cc1ccccc1 (stereo unspecified),N,N,N
CN(C)c1ccc(N2C(=O)CC(Nc3ccc(N4CCOCC4)cc3)C2=O)cc1 (stereo unspecified),N,N,N
COC[C@@H](N)C(=O)N1CCN(Cc2cccc(F)c2)CC1,N,N,N
COc1ccc(N2C(N)=C(C#N)C(c3ccncc3)C3=C2CCS3(=O)=O)cc1 (stereo unspecified),N,N,N
CO[C@H]1[C@H](NC(=O)c2ccc[nH]2)c2ccccc2C12CCNCC2,N,N,N
CCSc1ncc(CN2CCNC(C(=O)NCc3ccccn3)C2)cn1 (stereo unspecified),N,N,N
CC(Cn1cncn1)NC1CCN(c2nc3ccc(Cl)cc3s2)CC1 (stereo unspecified),N,N,N
CCc1ccccc1NC(=O)c1nnn(CC(=O)Nc2ccc(C)cc2C)c1N,N,N,N
CC(C)[C@H]1CN(c2cncc(C(=O)N3CCCC3)n2)C[C@@H]1N,N,N,N
NCCc1nnc(SCc2ccc(Cl)cc2Cl)o1,Y,N,N
CC1OC(Nc2cc(Cl)ccc2C(=O)O)C(O)C(O)C1O (stereo unspecified),N,N,N
CC(=O)n1c2ccccc2c2nc(Nc3ccccc3)sc21,N,N,N
CC(C)(C)c1ccc(C(=O)N2CCNCC2)cc1.Cl,N,N,N
O=C(NCCNc1cccnc1)c1ccc(Cl)s1,N,N,N
Cc1ccc(CN(C)C(=O)c2nc(N)n[nH]2)o1,N,N,N
O=C1CCC(NCc2ccc(C(=O)N3CCCC3)cc2)CCN1CC1CC1 (stereo unspecified),N,N,N
CS(=O)(=O)CCN1C[C@H](NC(=O)CO)[C@@H](c2ccccc2)C1,N,N,N
O=S1(=O)C[C@H](NCC2CCCO2)[C@@H](S(=O)(=O)c2ccc(F)cc2)C1 (stereo partly specified),N,-,N
Cc1nc(-c2cc3cc(F)ccc3n2C)n(CCO)n1,N,N,N
CC1CCN(c2c(NCc3ccc(C(=O)N4CCCCC4)cc3)c(=O)c2=O)CC1,N,-,N
N#CC1=C(N)Oc2c(c(=O)oc3ccccc23)C1c1cccnc1 (stereo unspecified),N,N,N
CC(O)CNC(=O)Cn1nc(-c2ccccc2)n(CCc2ccccc2)c1=O (stereo unspecified),N,N,N
CC1(C)CC(=O)C2=C(C1)OC(N)=C(C#N)C2c1ccc(O)cc1 (stereo unspecified),N,N,N
Cc1ccc(CNCc2ccc(C(=O)O)s2)cc1,N,-,N
Cc1ccccc1CN(CCO)Cc1c(C)nn(C)c1Cl,N,N,N
COc1ccccc1-n1cc(C(=O)N2C[C@H]3C[C@H](O)[C@H](O)C[C@H]3C2)cn1,N,N,N
CCCOc1ccc(-c2cnc(S)nc2N)cc1,N,N,N
COc1ccc(Br)cc1CNC1=NS(=O)(=O)C(c2ccccc2)=C1C,N,-,N
CCOC(=O)c1c(N)sc(C(=O)Nc2cccc(OC)c2)c1C,N,N,N
CCOC(=O)c1cnn2c(SC)ncnc12,N,N,N
Cc1cc(C)nc(NS(=O)(=O)c2ccc(NCc3nc4ccccc4n3C)cc2)n1,N,N,N
CCc1ccc2occ(CC(=O)N3CCNCC3C(=O)N3CCCC3)c2c1 (stereo unspecified),N,N,N
O=C(Nc1cc(C(F)(F)F)cc(C(F)(F)F)c1)c1cc(Cl)ccc1O,N,N,N
O=S(=O)(NCCNCC1(O)CCNC1)c1ccc(Cl)cc1 (stereo unspecified),N,N,N
COc1cc(CNCc2cccnc2)ccc1OCc1ccc2c(c1)n(C)c(=O)n2C,N,-,Y
O=C1CC(Nc2ccc(N3CCOCC3)cc2)C(=O)N1c1ccc2c(c1)OCO2 (stereo unspecified),N,N,N
C=CC(=O)Nc1cc2c(Nc3ccc(F)c(Cl)c3)ncnc2cc1C#CC(C)(C)N1CCN(C)CC1,N,N,N
N=c1n(CCO)c2ccccc2n1Cc1ccccc1Cl,N,N,N
Cc1nn2c(NCCCn3ccnc3)cc(C(C)(C)C)nc2c1-c1ccccc1,N,-,N
Nc1ccc2oc(-c3ccccc3)nc2c1,N,N,N
Cc1nccnc1N1C[C@H](CO)C[C@H](CN2CCOCC2)C1,N,N,N
COCCOCC(O)CN1CCN(c2ccc(C)cc2)CC1 (stereo unspecified),N,N,N
Cc1ccc(NC(=O)Cn2c(-c3nonc3N)nc3ccccc32)cc1C,N,N,N
O=C(c1cc(-c2ccccc2)on1)N1CCOCC(CO)C1 (stereo unspecified),N,N,N
COC(=O)c1ccc(Nc2c3c(nc4ccccc24)CCC3)cc1,N,N,N
COc1cccc(CNCCc2c[nH]c3ccccc23)c1,N,N,N
CNc1ccc(Cl)cc1C(=O)NCCN(C)S(C)(=O)=O,N,N,N
Nc1ccc2[nH]c(CCC(=O)O)nc2c1,N,N,N
CCNc1nc(Oc2ccc(C(=O)OCC)cc2)nc(N(C)C)n1,N,N,N
CCc1nc2ccccc2n1CC(O)COc1cc(C)cc(C)c1 (stereo unspecified),N,-,N
CCO[C@H]1C[C@@H](O)C12CCN(C(=O)c1cnc(N3CCOCC3)nc1)CC2,N,N,N
O=C(c1cccc2nccnc12)N1[C@H]2CCNC[C@@H]1CC2,N,N,N
Nc1nc2c(s1)C(c1c(F)cccc1Cl)CC(=O)N2 (stereo unspecified),N,N,N
Cn1cnnc1CCN,N,N,N
O=C1c2ccccc2C(=O)N1c1nc[nH]n1,N,N,N
O=C(c1ccc(CO)o1)N1CCC(c2nccn2Cc2ccccn2)CC1,N,N,N

Data from the ROBIN nucleic acid binder screens, doi:10.1002/anie.202211358.